# Results: patent US11660328B2, “GLP-2 analogs and peptibodies for administration before, during or after surgery” (TAKEDA PHARMACEUTICAL COMPANY LIMITED, priority 2017, dated 2023)
# Tested on: villi and crypt cells of the small intestine
# Test: Ki67 IHC staining histology study of localization to crypts and villi
# Type: in vivo, female CD-1 mice
# Settings: FIGS. 4, 5A and 5B
# Description: Various doses of GLP-2 peptibody B264 were analyzed to assess the pharmacodynamic plateau, with the primary endpoint a measurement of the small intestinal weight relative to the total body weight and a histology study of the length of villi. 11 groups of six female CD-1 mice each were formed. For histology, four micron paraffin sections were prepared for H&E and Ki67 IHC staining. After whole slide scanning, an imagescope was used to measure villi length and crypt depth, and to analyze Ki67. The antibody against Ki67 is a rabbit antibody sold by Adcam®, catalog number ab 616667. The antibody was used at a working concentration of 1:100 and was detected using a Leica® Refine Kit. […] See, e.g., Example 13 of U.S. Provisional Application No. 62/548,601, filed Aug. 22, 2017 for more data and examples with respect to GLP-2 peptibody B264, GLP-2 peptibody […], and a GLP-2[[…]] peptide.
substance,measurement,value
GLP-2 peptibody K274: GLP-2 peptibody having the amino acid sequence of SEQ ID NO: 4 (GLP-2[A2G]-linker-IgG1 Fc fusion),localization to the villi and crypt cells,strong localization
